According to US10273243B2, “4-phenylpiperidines, their preparation and use” (The Trustees of Columbia University in the City of New York, priority 2013, dated 2019):
Some entries share one result that the patent states for a list of compounds.

Assays:
[1] = molecular target: RBP4 (Homo sapiens, UniProt P02753); assay: Scintillation proximity RBP4 binding assay (SPA); design: Untagged human RBP4 purified from urine of tubular proteinuria patients was purchased from Fitzgerald Industries International; purchased Fitzgerald Industries International; host or cells: human urine (tubular proteinuria patients); details: in vitro; stated 'and/or' with RBP4-TTR antagonism; numbers only in FIG. 8-14
[2] = molecular target: T1, RBP4-TTR interaction (Homo sapiens, UniProt P02753); assay: TR-FRET (HTRF) assay for retinol-induced RBP4-TTR interaction; format: biochemical; details: in vitro; stated 'and/or' with RBP4 binding; numbers only in FIG. 8-14
T1 construct: human RBP4 fragment (amino acids 19-201) was expressed in the Gold (DE3)pLysS E. coli strain; host or cells: E. coli Gold (DE3)pLysS (Stratagene), pMAL-c4x vector

Structure (SMILES)	RBP4 binding (SPA) [1]	antagonism of retinol-dependent RBP4-TTR interaction (HTRF) [2]
CC(=O)N1CCn2c(nnc2C(=O)N2CCC(c3ccccc3C(F)(F)F)CC2)C1 [Compound 54]	bind RBP4 in vitro	antagonize RBP4-TTR interaction in vitro at biologically significant concentrations
Cn1nc(C(=O)N2CCC(c3ccccc3C(F)(F)F)CC2)c2ccccc21 [Compound 55]	bind RBP4 in vitro	antagonize RBP4-TTR interaction in vitro at biologically significant concentrations
O=C(c1n[nH]c2cc(F)ccc12)N1CCC(c2ccccc2C(F)(F)F)CC1 [Compound 57]	bind RBP4 in vitro	antagonize RBP4-TTR interaction in vitro at biologically significant concentrations
Cn1nc(C(=O)N2CCC(O)(c3ccccc3C(F)(F)F)CC2)c2ccccc21 [Compound 58]	bind RBP4 in vitro	antagonize RBP4-TTR interaction in vitro at biologically significant concentrations
O=C(c1n[nH]c2cc(Cl)ccc12)N1CCC(c2ccccc2C(F)(F)F)CC1 [Compound 62]	bind RBP4 in vitro	antagonize RBP4-TTR interaction in vitro at biologically significant concentrations
COc1ccc2[nH]nc(C(=O)N3CCC(c4ccccc4C(F)(F)F)CC3)c2c1 [Compound 65]	bind RBP4 in vitro	antagonize RBP4-TTR interaction in vitro at biologically significant concentrations
O=C(c1n[nH]c2cc(F)c(F)cc12)N1CCC(c2ccccc2C(F)(F)F)CC1 [Compound 66]	bind RBP4 in vitro	antagonize RBP4-TTR interaction in vitro at biologically significant concentrations
O=C(c1cc2ccncc2[nH]1)N1CCC(c2ccccc2C(F)(F)F)CC1 [Compound 68]	bind RBP4 in vitro	antagonize RBP4-TTR interaction in vitro at biologically significant concentrations
O=C(c1cnc[nH]1)N1CCC(c2ccccc2C(F)(F)F)CC1 [Compound 73]	bind RBP4 in vitro	antagonize RBP4-TTR interaction in vitro at biologically significant concentrations
NC(=O)c1cccc(C(=O)N2CCC(c3ccccc3C(F)(F)F)CC2)c1 [Compound 74]	bind RBP4 in vitro	antagonize RBP4-TTR interaction in vitro at biologically significant concentrations
NC(=O)c1ccc(C(=O)N2CCC(c3ccccc3C(F)(F)F)CC2)cc1 [Compound 75]	bind RBP4 in vitro	antagonize RBP4-TTR interaction in vitro at biologically significant concentrations
O=C(c1cc2ccccc2[nH]1)N1CCC(c2ccccc2C(F)(F)F)CC1 [Compound 76]	bind RBP4 in vitro	antagonize RBP4-TTR interaction in vitro at biologically significant concentrations
O=C(c1nc2ccccc2[nH]1)N1CCC(c2ccccc2C(F)(F)F)CC1 [Compound 77]	bind RBP4 in vitro	antagonize RBP4-TTR interaction in vitro at biologically significant concentrations
O=C(c1cn2ccccc2n1)N1CCC(c2ccccc2C(F)(F)F)CC1 [Compound 79]	bind RBP4 in vitro	antagonize RBP4-TTR interaction in vitro at biologically significant concentrations
Cc1cnc2cc(C(=O)N3CCC(c4ccccc4C(F)(F)F)CC3)[nH]c2c1 [Compound 80]	bind RBP4 in vitro	antagonize RBP4-TTR interaction in vitro at biologically significant concentrations
O=C(c1nc2ccccc2s1)N1CCC(c2ccccc2C(F)(F)F)CC1 [Compound 81]	bind RBP4 in vitro	antagonize RBP4-TTR interaction in vitro at biologically significant concentrations
O=C(c1cn2ncccc2n1)N1CCC(c2ccccc2C(F)(F)F)CC1 [Compound 82]	bind RBP4 in vitro	antagonize RBP4-TTR interaction in vitro at biologically significant concentrations
O=C(c1cccnn1)N1CCC(c2ccccc2C(F)(F)F)CC1 [Compound 84]	bind RBP4 in vitro	antagonize RBP4-TTR interaction in vitro at biologically significant concentrations
O=C(c1ccc2nccn2n1)N1CCC(c2ccccc2C(F)(F)F)CC1 [Compound 85]	bind RBP4 in vitro	antagonize RBP4-TTR interaction in vitro at biologically significant concentrations

Structure (SMILES)	RBP4 binding (SPA) [1]	antagonism of retinol-dependent RBP4-TTR interaction (HTRF) [2]
O=C(c1ccnnc1)N1CCC(c2ccccc2C(F)(F)F)CC1 [Compound 87]	bind RBP4 in vitro	antagonize RBP4-TTR interaction in vitro at biologically significant concentrations
O=C(c1nc2ccccc2o1)N1CCC(c2ccccc2C(F)(F)F)CC1 [Compound 88]	bind RBP4 in vitro	antagonize RBP4-TTR interaction in vitro at biologically significant concentrations
O=C(c1cc2ncc(F)cc2[nH]1)N1CCC(c2ccccc2C(F)(F)F)CC1 [Compound 89]	bind RBP4 in vitro	antagonize RBP4-TTR interaction in vitro at biologically significant concentrations
O=C(c1nc2ncccc2[nH]1)N1CCC(c2ccccc2C(F)(F)F)CC1 [Compound 90]	bind RBP4 in vitro	antagonize RBP4-TTR interaction in vitro at biologically significant concentrations
COc1ccc2[nH]c(C(=O)N3CCC(c4ccccc4C(F)(F)F)CC3)cc2n1 [Compound 91]	bind RBP4 in vitro	antagonize RBP4-TTR interaction in vitro at biologically significant concentrations
O=C(c1ccc(Cl)nn1)N1CCC(c2ccccc2C(F)(F)F)CC1 [Compound 92]	bind RBP4 in vitro	antagonize RBP4-TTR interaction in vitro at biologically significant concentrations
Cn1cc(C(=O)N2CCC(c3ccccc3C(F)(F)F)CC2)c2ncccc21 [Compound 93]	bind RBP4 in vitro	antagonize RBP4-TTR interaction in vitro at biologically significant concentrations
O=C(c1cc2ncc(-n3ccnc3)cc2[nH]1)N1CCC(c2ccccc2C(F)(F)F)CC1 [Compound 94]	bind RBP4 in vitro	antagonize RBP4-TTR interaction in vitro at biologically significant concentrations
O=C(c1cc2ncc(N3CCOCC3)cc2[nH]1)N1CCC(c2ccccc2C(F)(F)F)CC1 [Compound 95]	bind RBP4 in vitro	antagonize RBP4-TTR interaction in vitro at biologically significant concentrations
Cc1nnsc1C(=O)N1CCC(c2ccccc2C(F)(F)F)CC1 [Compound 96]	bind RBP4 in vitro	antagonize RBP4-TTR interaction in vitro at biologically significant concentrations
O=C(c1cc2ncc(Cl)cc2[nH]1)N1CCC(c2ccccc2C(F)(F)F)CC1 [Compound 97]	bind RBP4 in vitro	antagonize RBP4-TTR interaction in vitro at biologically significant concentrations
O=C(c1cn2nc(N3CCOCC3)ccc2n1)N1CCC(c2ccccc2C(F)(F)F)CC1 [Compound 98]	bind RBP4 in vitro	antagonize RBP4-TTR interaction in vitro at biologically significant concentrations
Cc1ccc2nc(C(=O)N3CCC(c4ccccc4C(F)(F)F)CC3)cn2n1 [Compound 99]	bind RBP4 in vitro	antagonize RBP4-TTR interaction in vitro at biologically significant concentrations
Cc1ccc(C(=O)N2CCC(c3ccccc3C(F)(F)F)CC2)nn1 [Compound 102]	bind RBP4 in vitro	antagonize RBP4-TTR interaction in vitro at biologically significant concentrations
COc1ccc(C(=O)N2CCC(c3ccccc3C(F)(F)F)CC2)nn1 [Compound 103]	bind RBP4 in vitro	antagonize RBP4-TTR interaction in vitro at biologically significant concentrations
O=C(c1ccn[nH]1)N1CCC(c2ccccc2C(F)(F)F)CC1 [Compound 104]	bind RBP4 in vitro	antagonize RBP4-TTR interaction in vitro at biologically significant concentrations
O=C(c1cnccn1)N1CCC(c2ccccc2C(F)(F)F)CC1 [Compound 105]	bind RBP4 in vitro	antagonize RBP4-TTR interaction in vitro at biologically significant concentrations
O=C(c1cnn[nH]1)N1CCC(c2ccccc2C(F)(F)F)CC1 [Compound 107]	bind RBP4 in vitro	antagonize RBP4-TTR interaction in vitro at biologically significant concentrations
O=C(c1cn2nc(N3CCCC3)ccc2n1)N1CCC(c2ccccc2C(F)(F)F)CC1 [Compound 108]	bind RBP4 in vitro	antagonize RBP4-TTR interaction in vitro at biologically significant concentrations
